Laboratory results: paper doi:10.1101/2025.11.01.685996
No constants are given. Whether binding was seen depends on the method and setting. Binding seen in cells or lysates may run through a third protein. Some binding calls cover weakened binding; strength is not graded here.

Amino acid sequences for entries named in this document (tags omitted). A change or cut given only in a name is not applied to a line headed by its entry. Chains listed by the source or under a name are the forms on record and can include a tag or linker.
UniProt P21730: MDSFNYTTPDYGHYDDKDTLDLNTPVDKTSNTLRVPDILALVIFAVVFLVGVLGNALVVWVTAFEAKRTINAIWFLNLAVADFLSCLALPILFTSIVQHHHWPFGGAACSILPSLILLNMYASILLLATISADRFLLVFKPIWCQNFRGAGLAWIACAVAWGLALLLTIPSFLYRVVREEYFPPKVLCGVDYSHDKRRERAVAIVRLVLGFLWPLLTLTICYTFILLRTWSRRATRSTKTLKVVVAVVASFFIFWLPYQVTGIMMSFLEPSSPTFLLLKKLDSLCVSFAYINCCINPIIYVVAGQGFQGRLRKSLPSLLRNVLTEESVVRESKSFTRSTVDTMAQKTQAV
UniProt Q9P296: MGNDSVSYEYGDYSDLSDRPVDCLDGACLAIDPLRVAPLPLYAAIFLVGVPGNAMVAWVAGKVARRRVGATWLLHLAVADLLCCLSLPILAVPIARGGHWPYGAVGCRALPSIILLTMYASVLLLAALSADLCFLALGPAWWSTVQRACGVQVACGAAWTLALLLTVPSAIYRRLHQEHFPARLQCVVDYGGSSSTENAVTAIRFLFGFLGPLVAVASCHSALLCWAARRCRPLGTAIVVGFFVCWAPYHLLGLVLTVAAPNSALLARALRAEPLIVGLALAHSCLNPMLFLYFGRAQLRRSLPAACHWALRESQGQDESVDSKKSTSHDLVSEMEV
human C5aR2 mutant Arg(5.42) to alanine (Q9P296, form named): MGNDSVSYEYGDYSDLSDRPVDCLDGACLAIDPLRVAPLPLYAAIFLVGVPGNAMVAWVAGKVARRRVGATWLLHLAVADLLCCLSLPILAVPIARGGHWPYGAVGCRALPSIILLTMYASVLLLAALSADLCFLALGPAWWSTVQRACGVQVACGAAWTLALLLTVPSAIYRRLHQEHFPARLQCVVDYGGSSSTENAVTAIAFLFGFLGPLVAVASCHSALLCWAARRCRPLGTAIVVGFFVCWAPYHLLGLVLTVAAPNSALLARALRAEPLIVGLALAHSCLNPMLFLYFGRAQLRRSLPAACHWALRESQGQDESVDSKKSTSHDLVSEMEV
UniProt P49407: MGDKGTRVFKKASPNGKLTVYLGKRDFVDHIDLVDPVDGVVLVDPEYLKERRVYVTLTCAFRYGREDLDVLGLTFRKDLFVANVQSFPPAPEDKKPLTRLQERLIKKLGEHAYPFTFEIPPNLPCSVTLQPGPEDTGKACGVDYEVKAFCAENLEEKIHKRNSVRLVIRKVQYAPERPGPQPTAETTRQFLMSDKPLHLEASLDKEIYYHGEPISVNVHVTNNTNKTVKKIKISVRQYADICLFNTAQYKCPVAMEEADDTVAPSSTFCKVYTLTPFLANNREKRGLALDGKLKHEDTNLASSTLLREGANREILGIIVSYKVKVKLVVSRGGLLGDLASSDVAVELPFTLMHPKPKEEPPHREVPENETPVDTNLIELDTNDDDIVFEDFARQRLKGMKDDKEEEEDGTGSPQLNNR
UniProt P32121: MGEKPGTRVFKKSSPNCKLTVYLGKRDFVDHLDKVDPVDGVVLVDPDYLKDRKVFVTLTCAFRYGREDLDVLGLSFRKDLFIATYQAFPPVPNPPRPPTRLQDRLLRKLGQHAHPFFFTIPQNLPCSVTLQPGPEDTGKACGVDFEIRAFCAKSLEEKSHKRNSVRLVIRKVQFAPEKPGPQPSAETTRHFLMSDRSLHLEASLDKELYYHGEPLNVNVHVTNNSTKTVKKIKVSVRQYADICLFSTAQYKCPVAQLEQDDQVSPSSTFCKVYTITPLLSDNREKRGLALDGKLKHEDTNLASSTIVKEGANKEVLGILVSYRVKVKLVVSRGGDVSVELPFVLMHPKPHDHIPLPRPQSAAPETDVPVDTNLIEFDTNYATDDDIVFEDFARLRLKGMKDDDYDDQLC

Columns and labels:
[1] = biological target: human C5aR1 with C-terminal SmBiT (hC5aR1-SmBiT) (human) (UniProt P21730); test: split reporter
[2] = biological target: T1, human C3aR with C-terminal SmBiT (hC3aR) (human) (UniProt Q16581); test: split reporter
T1 sequence: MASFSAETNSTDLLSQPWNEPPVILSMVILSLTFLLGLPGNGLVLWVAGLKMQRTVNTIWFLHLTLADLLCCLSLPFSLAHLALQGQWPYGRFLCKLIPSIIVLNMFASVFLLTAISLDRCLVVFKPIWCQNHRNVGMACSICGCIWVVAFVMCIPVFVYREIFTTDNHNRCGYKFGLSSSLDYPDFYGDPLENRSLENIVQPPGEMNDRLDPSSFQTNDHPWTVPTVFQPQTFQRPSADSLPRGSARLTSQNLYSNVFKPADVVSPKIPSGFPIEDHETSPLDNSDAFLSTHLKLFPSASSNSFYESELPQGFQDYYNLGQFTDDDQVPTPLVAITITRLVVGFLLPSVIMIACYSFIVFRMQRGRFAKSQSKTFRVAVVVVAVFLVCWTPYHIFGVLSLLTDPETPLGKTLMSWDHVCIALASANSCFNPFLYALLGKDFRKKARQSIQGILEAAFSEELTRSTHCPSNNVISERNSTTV

[3] = biological target: human C5aR2 mutant Arg(5.42) to alanine (human) (UniProt Q9P296); test: split reporter
[4] = biological target: human C5aR2 with C-terminal SmBiT (hC5aR2-SmBiT) (human) (UniProt Q9P296); test: split reporter
[5] = biological target: T2, mouse C5aR2 with C-terminal SmBiT (mC5aR2-SmBiT) (mouse) (UniProt Q8BW93); test: split reporter
T2 sequence: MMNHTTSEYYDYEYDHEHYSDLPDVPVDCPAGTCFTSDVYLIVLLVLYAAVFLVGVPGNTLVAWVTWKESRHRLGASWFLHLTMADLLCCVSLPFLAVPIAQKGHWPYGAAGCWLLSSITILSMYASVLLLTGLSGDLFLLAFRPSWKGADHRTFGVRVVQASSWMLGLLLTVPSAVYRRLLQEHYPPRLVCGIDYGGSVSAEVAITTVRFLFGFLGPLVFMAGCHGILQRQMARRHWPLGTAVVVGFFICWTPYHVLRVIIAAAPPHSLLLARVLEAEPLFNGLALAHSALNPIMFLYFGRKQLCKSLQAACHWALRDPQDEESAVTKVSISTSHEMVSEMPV

[6] = biological target: T3, mouse C5aR1 with C-terminal SmBiT (mC5aR1-SmBiT) (mouse) (UniProt P30993); test: split reporter
T3 sequence: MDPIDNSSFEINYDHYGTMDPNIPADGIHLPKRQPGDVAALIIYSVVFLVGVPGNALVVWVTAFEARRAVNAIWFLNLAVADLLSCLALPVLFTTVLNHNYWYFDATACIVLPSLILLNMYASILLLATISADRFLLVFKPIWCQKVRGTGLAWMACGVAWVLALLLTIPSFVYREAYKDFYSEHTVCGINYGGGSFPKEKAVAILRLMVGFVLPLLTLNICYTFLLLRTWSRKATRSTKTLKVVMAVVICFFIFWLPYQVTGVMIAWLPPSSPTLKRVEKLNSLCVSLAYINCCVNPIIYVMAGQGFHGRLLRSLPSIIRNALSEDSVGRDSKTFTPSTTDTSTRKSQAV

C5aR2-Venus = C5aR2-Venus (UniProt Q9P296); test: FRET or BRET
[7] = biological target: human C5aR1-Rluc8 (human) (UniProt P21730); test: FRET or BRET

Measured: binding

β-arrestin 1 with N-terminal LgBiT (LgBiT-βarr1) (from UniProt P49407 1-418)
not listed: C5aR2-Venus | [7]
binds: all other assays above

β-arrestin 2 with N-terminal LgBiT (LgBiT-βarr2) (from UniProt P32121 1-409)
binds: [1] | [4] | [5] | [6]

β-arrestin 2-Rluc (from UniProt P32121 1-409)
binds: C5aR2-Venus

β-arrestin 2-Venus (from UniProt P32121 1-409)
binds: [7]
